# From PubChem BioAssay AID624291 (National Center for Advancing Translational Sciences (NCATS), 2012)
# About 220 (0.063%) of roughly 350,000 compounds were called active. Inconclusive results, whose numbers are uncertain, are shown with a selection of clear calls. The call rests on the fitted dose curve; in most records, active means well fitted activation curve with a large enough effect; inconclusive means small, poorly fitted or top-dose-only effect; inactive means no such curve, though single readings can be large or run the other way. Potencies beside an inconclusive call are fits to weak or partial responses and may not hold up.
# Assay: qHTS for Activators of Integrin-Mediated Alleviation for Muscular Dystrophy; further: nearly all actives have a fitted effect of over 60% in size
# Settings: alpha7betagal myoblasts, beta-gal FDG fluorescence, 48 h; series mostly up to 38.3 µM
# How it was run: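 alpha7betagal+/- myoblasts (passage 13, 250/well) treated 48 h at 37C with compounds at 1:260 dilution of DMSO stock. Lysed, then beta-galactosidase activity read as FDG fluorescence (ex 480/em 540) after 30 min, with pre-read for autofluorescence.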
# Potency means the concentration at half of the fitted maximal effect.
row,SMILES,Potency
1,C=CCc1c(C)[nH]c2ccc(C)cc2c1=O,"inconclusive: 31.6 µM [activator, single point]"
2,COc1ccccc1CCn1cc(C#N)c(=O)[nH]c1=O,"inconclusive: 20 µM [activator, single point]"
3,Cc1cc(N2C3CCC2CC(O)(c2ccc(F)cc2)C3)nc(-c2ccccc2)n1 (stereo unspecified),"inconclusive: 14.1 µM [activator, single point]"
4,Cc1ccc(-c2nnc(N3CCOCC3)c3ccccc23)cc1S(=O)(=O)N(C)C,"inconclusive: 28.2 µM [activator, single point]"
5,CC(=O)Nc1ccc(S(=O)(=O)NCc2ccc(C(=O)N3CCOCC3)cc2)cc1,"inconclusive: 28.2 µM [activator, single point]"
6,C=CCSc1ncc(-c2ccccc2)cn1,inactive
7,O=C(Nc1ccccc1NC(=O)c1c(F)c(F)c(F)c(F)c1F)c1c(F)c(F)c(F)c(F)c1F,inactive
8,Nc1c(C(=O)CSc2nnc(Nc3ccc(F)cc3)s2)c(=O)[nH]c(=O)n1C1CC1,"inconclusive: 5.01 µM [activator, single point]"
9,CCOc1ccc(Nc2nc3ccccc3n3cnnc23)cc1,"inconclusive: 10 µM [activator, single point]"
10,O=S(=O)([N-]c1nc2ccccc2nc1-n1cc[n+](Cc2ccccc2)c1)c1ccc(Cl)cc1,inactive
11,Cc1nc(N2CCCCC2)c(C#N)c(C)c1[N+](=O)[O-],"inconclusive: 17.8 µM [activator, single point]"
12,O=C(Nc1ccc(Cl)cc1)NC1CCCC1Cc1ccco1 (stereo unspecified),inactive
13,CCOC(=O)C1=C(COC(=O)c2cc(S(=O)(=O)N3CCOCC3)ccc2F)NC(=O)NC1C (stereo unspecified),"inconclusive: 2.82 µM [activator, single point]"
14,COc1cc(NC(=O)C2C3C=CC(C3)C2C(=O)O)ccc1NC(=O)c1ccccc1 (stereo unspecified),active: 8.91 µM
15,O=C(COC(=O)COc1ccccc1)Nc1ccccc1OC(F)F,inactive
16,COc1cc(/C=C/C(=O)N2C(=O)c3cccc(N)c3C2=O)cc(OC)c1OC,inactive
17,CCN(CC)S(=O)(=O)c1cc(C(=O)Nc2ccc(Cl)cn2)ccc1C,inactive
18,CCn1cc(C(=O)NCc2ccccc2F)c(=O)c2ccc(C)nc21,"inconclusive: 6.31 µM [activator, partial curve, poor fit]"
19,Cc1nc(Cl)sc1C(=O)Nc1ccccc1,"inconclusive: 3.55 µM [activator, single point]"
20,Cc1c(C(=O)N/N=C/c2ccccc2)[nH]c2ccc(Cl)cc12,inactive
21,CCOC(=O)C1CCCN(Cc2cccc(Cl)c2)C1 (stereo unspecified),"inconclusive: 5.01 µM [activator, single point]"
22,COC(=O)CSc1nnc(-c2sc3ccccc3c2Cl)o1,inactive
23,COc1ccccc1CN1C[C@@H]2C[C@@H](c3cccc(O)c3)N3CCC[C@@]23C1=O,"inconclusive: 31.6 µM [activator, partial curve, poor fit]"

# In the list so far, four have an NH in an aromatic ring.
row,SMILES,Potency
1,C=CCc1c(C)[nH]c2ccc(C)cc2c1=O,"inconclusive: 31.6 µM [activator, single point]"
2,COc1ccccc1CCn1cc(C#N)c(=O)[nH]c1=O,"inconclusive: 20 µM [activator, single point]"
8,Nc1c(C(=O)CSc2nnc(Nc3ccc(F)cc3)s2)c(=O)[nH]c(=O)n1C1CC1,"inconclusive: 5.01 µM [activator, single point]"
20,Cc1c(C(=O)N/N=C/c2ccccc2)[nH]c2ccc(Cl)cc12,inactive

# Following part

row,SMILES,Potency
1,CC(Oc1cccnc1[N+](=O)[O-])C(=O)Nc1ccc(F)cc1 (stereo unspecified),inactive
2,COc1ccccc1C(=O)N/N=C(\C)c1ccc(NC(=O)C2CC2)cc1,inactive
3,COc1ccc2oc(C(=O)c3ccccc3)c(N)c2c1,"inconclusive: 0.316 µM [activator, full curve, poor fit]"
4,CCCn1c(N)c(C(=O)CSc2nnc3n2CCCCC3)c(=O)[nH]c1=O,"inconclusive: 5.01 µM [activator, single point]"
5,Oc1ccc(/C=N/NC2=NCCCCC2)cc1,"inconclusive: 1 µM [activator, partial curve, poor fit]"
6,Cc1ccc(NC(=O)c2nc[nH]c2C(=O)NCCCCNC(=O)c2[nH]cnc2C(=O)Nc2ccc(C)cc2)cc1,inactive
7,S=c1nc(-c2csc3c2CCCC3)[nH][nH]1,inactive
8,O=C(NN1C(=O)c2ccccc2NC1c1cccnc1)c1ccc([N+](=O)[O-])cc1 (stereo unspecified),"inconclusive: 5.01 µM [activator, partial curve]"
9,COc1cc(NC2c3ccccc3C(=O)N2Cc2ccccc2Cl)cc(OC)c1 (stereo unspecified),"inconclusive: 3.16 µM [activator, partial curve, poor fit]"
10,Cc1ccc(O)c(CCc2ccc(O)cc2)n1,"inconclusive: 5.01 µM [activator, single point]"
11,CN(c1ccc(OCC(=O)OCC(=O)Nc2ccc(Br)cc2)cc1)S(=O)(=O)c1cccs1,"inconclusive: 15.8 µM [activator, single point]"
12,O=C(/C=C/c1ccccc1[N+](=O)[O-])Nc1cccnc1,"inconclusive: 28.2 µM [activator, single point]"
13,O=S(=O)(NCC(c1ccc2c(c1)OCO2)N1CCOCC1)c1ccc(Br)cc1 (stereo unspecified),"inconclusive: 0.447 µM [activator, full curve, poor fit]"
14,COc1ccc(-c2csc(NC(=O)C(CC(=O)O)N3CCOCC3)n2)cc1 (stereo unspecified),"inconclusive: 4.47 µM [activator, single point]"
15,c1ccc2c(c1)COC(CNC1CCCCC1)OC2,"inconclusive: 5.01 µM [activator, single point]"
16,CCc1ccc(C(=O)COC(=O)CNC(=O)C2CCCCC2)cc1,"inconclusive: 3.55 µM [activator, partial curve, poor fit]"
17,O=C(N/N=C/c1cccnc1)c1ccccc1OCc1cccc(Br)c1,inactive
18,CN(Cc1ccccc1)CC(O)COc1ccc(CNCc2cccnc2)cc1 (stereo unspecified),"inconclusive: 2.51 µM [activator, single point]"
19,O=C(Nc1nc(-c2ccc(Cl)cc2)cs1)C1=COCCO1,inactive
20,COC(=O)c1ccc(NC(=S)NC2CCCCC2)cc1,inactive
21,Cc1cccc(Cc2cccc(C)c2O)c1O,"inconclusive: 5.01 µM [activator, single point]"
22,CC1CCCN(CC(=O)Nc2cc(S(=O)(=O)N3CCOCC3)ccc2N2CCCC2)C1 (stereo unspecified),"inconclusive: 2.82 µM [activator, single point]"
23,COc1ccc(C2Oc3ccccc3C3=C2C(c2cccs2)n2ncnc2N3)cc1 (stereo unspecified),inactive
